Experimental data: PMC6876861
No constants are given. Whether binding was seen depends on the method and setting. In cells and extracts the contact can be indirect. A result given as binding can be weak or reduced; the word gives no strength.

Biological target: T1, Guanine nucleotide exchange factor-H1 (GEF-H1) (mouse (endogenous in BMDCs)) (UniProt Q60875)
T1 sequence: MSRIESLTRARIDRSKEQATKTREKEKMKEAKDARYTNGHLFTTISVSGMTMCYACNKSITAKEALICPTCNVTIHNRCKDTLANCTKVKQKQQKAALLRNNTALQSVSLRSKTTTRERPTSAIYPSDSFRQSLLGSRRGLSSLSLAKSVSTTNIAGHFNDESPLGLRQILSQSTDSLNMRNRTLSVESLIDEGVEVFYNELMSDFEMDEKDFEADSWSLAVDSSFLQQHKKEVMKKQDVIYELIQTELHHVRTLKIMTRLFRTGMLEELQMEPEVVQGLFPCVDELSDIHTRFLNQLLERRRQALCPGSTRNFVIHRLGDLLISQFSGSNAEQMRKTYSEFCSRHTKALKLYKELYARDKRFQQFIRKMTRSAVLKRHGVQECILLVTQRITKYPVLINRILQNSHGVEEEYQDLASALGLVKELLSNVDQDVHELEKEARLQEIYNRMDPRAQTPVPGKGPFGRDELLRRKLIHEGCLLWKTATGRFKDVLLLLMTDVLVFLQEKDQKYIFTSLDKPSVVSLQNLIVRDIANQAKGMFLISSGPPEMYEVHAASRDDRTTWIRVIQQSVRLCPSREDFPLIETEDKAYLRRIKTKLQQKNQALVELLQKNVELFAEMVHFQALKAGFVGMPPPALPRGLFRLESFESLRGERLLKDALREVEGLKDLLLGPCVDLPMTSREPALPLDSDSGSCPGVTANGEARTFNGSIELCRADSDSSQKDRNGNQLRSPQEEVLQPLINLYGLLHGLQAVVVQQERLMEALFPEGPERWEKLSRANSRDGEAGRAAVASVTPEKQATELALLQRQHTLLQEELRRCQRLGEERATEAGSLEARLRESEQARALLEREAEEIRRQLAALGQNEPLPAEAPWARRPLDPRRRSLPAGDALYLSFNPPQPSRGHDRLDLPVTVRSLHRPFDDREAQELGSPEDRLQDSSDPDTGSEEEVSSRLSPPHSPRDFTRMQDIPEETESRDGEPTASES
Experiment: co-IP; anti-GEFH1 immunoprecipitation from NP-40 lysates of WT BMDCs treated with ansamitocin-P3 or taxane (100 nM) for the indicated times; blot for α-tubulin

α-tubulin (mouse (endogenous in BMDCs))
binding: binds
